Experimental data as given in patent US20110093959A1, “CRYPTOTIS PARVA SCREENING MODEL FOR ANTIEMETIC POTENTIAL” (priority 2008, published 2011).
Entries after “also recorded” stand apart in the source; their conditions may differ. For at least one compound, name, drawing or mass did not settle the structure.

System: CIS-induced emesis in the Least Shrew
Assay: Tropisetron, Δ^9-THC and dexamethasone alone or in combination against CIS (20 mg/kg)-induced emesis, 60 min
Format: in vivo, Cryptotis parva
Settings: for attenuation of CIS-induced vomiting frequency, over tested doses: individual administration, Δ^9-THC 0-10, tropisetron 0-5, dexamethasone 0-20 mg/kg i.p.
Procedure: Briefly, all animals were randomly divided into two groups. On the test day, shrews were habituated to the laboratory environment for at least 1 hr prior to experimentation. […] All drugs were administered at a volume of 0.1 ml/10 g body weight. Immediately following the second injection, each shrew was placed in the observation cage, and both the number of animals vomiting per group and the frequency of vomiting (oral ejections of food or liquid) were recorded for the next 60 min
Poisson regression and logistic regression analyses were employed for two-way analysis of vomiting frequency and protection from emesis, respectively. […] Data regarding the frequency of emesis were analyzed by the Kruskal-Wallis nonparametric one-way analysis of variance (ANOVA), and post hoc analysis by Dunn's multiple comparisons test. The incidence of emesis (number of animals vomiting) was analyzed by Fisher's exact test to determine whether there were differences between groups, and when appropriate, pairwise comparisons were also made. A p value of<0.05 was necessary to achieve statistical significance.

For `C[C@@H]1C[C@H]2[C@@H]3CCC4=CC(=O)C=C[C@]4(C)[C@@]3(F)[C@@H](O)C[C@]2(C)[C@@]1(O)C(=O)CO` [dexamethasone], the “reduction in number of shrews vomiting vs 0 mg/kg DEX control groups” value (DEX combined with any of the tested doses of Δ^9-THC) was “no dose of DEX was able to significantly reduce”, the “reduction in number of shrews vomiting, over tested doses” value (drug by itself, dose-dependent, listed as DEX) was “no dose of DEX administered alone significantly reduced; also recorded: failed to significantly reduce” and the “attenuation of CIS-induced vomiting frequency, over tested doses” value was “no tested doses of dexamethasone significantly attenuated”. The “attenuation of CIS-induced vomiting frequency, over tested doses” value (listed as dexamethasone (DEX)) was “failed to significantly attenuate”.
